Drawing on publication PMC9018197, this text covers binding for 2 molecules.

Amino acid sequences for entries named in this document (tags omitted).
UniProt P15927: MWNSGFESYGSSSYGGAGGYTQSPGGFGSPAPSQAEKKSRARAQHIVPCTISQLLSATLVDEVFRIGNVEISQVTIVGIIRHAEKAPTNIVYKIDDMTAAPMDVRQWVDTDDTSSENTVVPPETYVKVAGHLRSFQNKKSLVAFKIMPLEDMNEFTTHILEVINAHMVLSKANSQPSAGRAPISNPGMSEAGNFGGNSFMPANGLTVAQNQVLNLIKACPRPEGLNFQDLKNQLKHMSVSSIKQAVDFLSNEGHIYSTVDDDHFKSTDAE

These are yes or no findings as the source states them, for the method shown. Binding seen in cells or lysates may run through a third protein. These calls come from enrichment with a bait or labelling near it, and not all partners need be listed.

The target in the experiment is Beclin1 (human (endogenous in HaCaT)) (UniProt Q14457). The experiment can be described thus: affinity purification with mass spectrometry; HaCaT lysate precipitated with anti-Beclin1 antibody, eluted at pH 2.0; label-free quantitative proteomics and parallel reaction monitoring (PRM); cells with or without 100 mM trehalose for 24 hours.

For the molecule “RPA32 (RPA2) (from UniProt P15927 1-270)”, the binding entry was “binds”.

B1: tissue inhibitor of metalloproteinase (TIMP) 3 (protein, UniProt P35625 24-211)
chain: CTCSPSHPQDAFCNSDIVIRAKVVGKKLVKEGPFGTLVYTIKQMKMYRGFTKMPHVQYIHTEASESLCGLKLEVNKYQYLLTGRVYDGKMYTGLCNFVERWDQLTLSQRKGLNYRYHLGCNCKIKSCYYLPCFVTSKNECLWTDMLSNFGYPGYQSKHYACIRQKGGYCSWYRGWAPPDKSIINATDP
For B1, the binding entry is reported as “binds”.
